In article PMC5890618, “Structural and Functional Insights into Bacillus subtilis Sigma Factor Inhibitor, CsfB” (Structure(London, England:1993), 2018):
No constants are given. Whether binding was seen depends on the method and setting.

Key:
[1] = molecular target: T1, CsfB^1-48 (truncated wild-type CsfB, stable degradation product, residues 1-48) (Bacillus subtilis) (UniProt P37534); assay: NMR titration; 15N-labelled CsfB (100 uM for CsfB^A48E) titrated with unlabelled sigma factor up to 1:2 molar equivalents; 1H-15N SOFAST-HMQC; 298 K; 50 mM HEPES pH 7.5, 150 mM KCl, 0.5 mM TCEP; both purified
T1 sequence: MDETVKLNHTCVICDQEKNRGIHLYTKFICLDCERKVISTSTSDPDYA

[2] = molecular target: T1, CsfB^1-48 (truncated wild-type CsfB, stable degradation product, residues 1-48) (Bacillus subtilis); assay: ITC; cell 60 uM CsfB^A48E, syringe 395 uM σ^E; 25°C; 19 injections of 2 ul; 50 mM HEPES pH 7.5, 150 mM KCl, 0.5 mM TCEP; fitted assuming 1:1 stoichiometry; both purified
[3] = molecular target: T2, σ^G (recombinant full-length sigma factor G, residues 1-260) (Bacillus subtilis) (UniProt P19940); assay: ITC; cell 110 uM σ^G, syringe 1.6 mM CsfB^A48E; 25°C; 19 injections of 2 ul; 50 mM HEPES pH 7.5, 150 mM KCl, 0.5 mM TCEP; both purified
T2 sequence: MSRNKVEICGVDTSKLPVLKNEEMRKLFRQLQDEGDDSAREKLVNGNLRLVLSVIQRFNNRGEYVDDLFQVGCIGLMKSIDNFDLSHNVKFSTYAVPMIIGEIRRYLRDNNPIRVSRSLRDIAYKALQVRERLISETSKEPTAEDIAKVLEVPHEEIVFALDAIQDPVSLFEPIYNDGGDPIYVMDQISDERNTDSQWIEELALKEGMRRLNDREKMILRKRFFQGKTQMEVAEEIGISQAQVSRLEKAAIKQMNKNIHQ

Row | Binder | binding [1] | binding [2] | binding [3]
1 | σ^G (recombinant full-length sigma factor G, residues 1-260) (protein, UniProt P19940 1-260) MSRNKVEICGVDTSKLPVLKNEEMRKLFRQLQDEGDDSAREKLVNGNLRLVLSVIQRFNNRGEYVDDLFQVGCIGLMKSIDNFDLSHNVKFSTYAVPMIIGEIRRYLRDNNPIRVSRSLRDIAYKALQVRERLISETSKEPTAEDIAKVLEVPHEEIVFALDAIQDPVSLFEPIYNDGGDPIYVMDQISDERNTDSQWIEELALKEGMRRLNDREKMILRKRFFQGKTQMEVAEEIGISQAQVSRLEKAAIKQMNKNIHQ | no binding |  | 
2 | σ^E (truncated sigma factor E, residues 17-239, lacking the N-terminal membrane-anchored pro-sequence) (domain or fragment, Bacillus subtilis, UniProt P06222 17-239, looked up, Cloned into pET28-TxrA; The tag was removed with TEV 'when required'; also called sigma E; SigE; source: E. coli BL21(DE3)pLysS, purified (HisTrap Ni Sepharose, Superdex75 SEC)) MKLGLKSDEVYYIGGSEALPPPLSKDEEQVLLMKLPNGDQAARAILIERNLRLVVYIARKFENTGINIEDLISIGTIGLIKAVNTFNPEKKIKLATYASRCIENEILMYLRRNNKIRSEVSFDEPLNIDWDGNELLLSDVLGTDDDIITKDIEANVDKKLLKKALEQLNEREKQIMELRFGLVGEEEKTQKDVADMMGISQSYISRLEKRIIKRLRKEFNKMV | no binding | no binding | 
3 | MDETVKLNHTCVICDQEKNRGIHLYTKFICLDCERKVISTSTSDPDYA (domain or fragment, Bacillus subtilis, UniProt P37534 1-48, looked up, Produced as N-terminally histidine-tagged full-length CsfB that degraded to 1-48; Symmetrical homodimer by NMR; also called cleaved CsfB; truncated variant; source: E. coli BL21(DE3)pLysS, purified (HisTrap Ni Sepharose, Superdex75 SEC); arises by degradation of recombinant full-length CsfB) [CsfB^1-48 (truncated wild-type CsfB, stable degradation product, residues 1-48)] |  |  | no binding
